Measurements published in patent US12643924B2, “Cardiac-specific targeting-peptide (CTP), compositions, and uses thereof” (University of Pittsburgh—Of the Commonwealth System of …, priority 2018, dated 2026).

Test: Spectrophotometric fluorescence of the Cy5.5 peptides, used as correction ratio for FACS
Details: fluorescence of peptide relative to CTP, controls for differences in fluorescence between peptides

Substance	Correction Ratio
APWHLSSQYART (Cy5.5 conjugate; Description of Artificial Sequence: Cardiac Targeting Peptide (S10A)) [alanine variant of CTP, Cy5.5 conjugated]	0.46
APWHLSAQYSRT (Cy5.5 conjugate; Description of Artificial Sequence: Cardiac Targeting Peptide (S7A)) [alanine variant of CTP, Cy5.5 conjugated]	0.95
APWHLSSQYSAT (Cy5.5 conjugate; Description of Artificial Sequence: Cardiac Targeting Peptide (R11A)) [alanine variant of CTP, Cy5.5 conjugated]	0.93
AAWHLSSQYSRT (Cy5.5 conjugate; Description of Artificial Sequence: Cardiac Targeting Peptide (CTP-P2A)) [alanine variant of CTP, Cy5.5 conjugated]	0.95
APWHLSSQASRT (Cy5.5 conjugate; Description of Artificial Sequence: Cardiac Targeting Peptide (Y9A)) [alanine variant of CTP, Cy5.5 conjugated]	0.94
APWHLSSAYSRT (Cy5.5 conjugate; Description of Artificial Sequence: Cardiac Targeting Peptide (Q8A)) [alanine variant of CTP, Cy5.5 conjugated]	1.03
APWALSSQYSRT (Cy5.5 conjugate; Description of Artificial Sequence: Cardiac Targeting Peptide (H4A)) [alanine variant of CTP, Cy5.5 conjugated]	0.94
SQYSRT (Description of Artificial Sequence: Cardiac Targeting Peptide (CTP-B)) [linear six C-terminal amino acid cardiac-specific targeting peptide]	0.8318
APWHLSSQYSRA (Cy5.5 conjugate; Description of Artificial Sequence: Cardiac Targeting Peptide (T12A)) [alanine variant of CTP, Cy5.5 conjugated]	1.29
APAHLSSQYSRT (Cy5.5 conjugate; Description of Artificial Sequence: Cardiac Targeting Peptide (W3A)) [alanine variant of CTP, Cy5.5 conjugated]	0.91
APWHLASQYSRT (Cy5.5 conjugate; Description of Artificial Sequence: Cardiac Targeting Peptide (S6A)) [alanine variant of CTP, Cy5.5 conjugated]	1.26
APWHASSQYSRT (Cy5.5 conjugate; Description of Artificial Sequence: Cardiac Targeting Peptide (L5A)) [alanine variant of CTP, Cy5.5 conjugated]	0.61
APWHLSSQYSRT (Cy5.5; Description of Artificial Sequence: Cardiac Targeting Peptide) [CTP, 12-amino acid cardiac-specific targeting peptide, tested conjugated to Cy5.5]	1
